Test results as given in the supplement of paper PMC6411743.
± gives the standard deviation of the averaged measurements. This is a selection; strong and weak results do not stand in their true shares.

Sequences of proteins named here, by UniProt entry; tags and fusion partners are left off. A change or cut given only in a name is not applied to a line headed by its entry.
UniProt O60518: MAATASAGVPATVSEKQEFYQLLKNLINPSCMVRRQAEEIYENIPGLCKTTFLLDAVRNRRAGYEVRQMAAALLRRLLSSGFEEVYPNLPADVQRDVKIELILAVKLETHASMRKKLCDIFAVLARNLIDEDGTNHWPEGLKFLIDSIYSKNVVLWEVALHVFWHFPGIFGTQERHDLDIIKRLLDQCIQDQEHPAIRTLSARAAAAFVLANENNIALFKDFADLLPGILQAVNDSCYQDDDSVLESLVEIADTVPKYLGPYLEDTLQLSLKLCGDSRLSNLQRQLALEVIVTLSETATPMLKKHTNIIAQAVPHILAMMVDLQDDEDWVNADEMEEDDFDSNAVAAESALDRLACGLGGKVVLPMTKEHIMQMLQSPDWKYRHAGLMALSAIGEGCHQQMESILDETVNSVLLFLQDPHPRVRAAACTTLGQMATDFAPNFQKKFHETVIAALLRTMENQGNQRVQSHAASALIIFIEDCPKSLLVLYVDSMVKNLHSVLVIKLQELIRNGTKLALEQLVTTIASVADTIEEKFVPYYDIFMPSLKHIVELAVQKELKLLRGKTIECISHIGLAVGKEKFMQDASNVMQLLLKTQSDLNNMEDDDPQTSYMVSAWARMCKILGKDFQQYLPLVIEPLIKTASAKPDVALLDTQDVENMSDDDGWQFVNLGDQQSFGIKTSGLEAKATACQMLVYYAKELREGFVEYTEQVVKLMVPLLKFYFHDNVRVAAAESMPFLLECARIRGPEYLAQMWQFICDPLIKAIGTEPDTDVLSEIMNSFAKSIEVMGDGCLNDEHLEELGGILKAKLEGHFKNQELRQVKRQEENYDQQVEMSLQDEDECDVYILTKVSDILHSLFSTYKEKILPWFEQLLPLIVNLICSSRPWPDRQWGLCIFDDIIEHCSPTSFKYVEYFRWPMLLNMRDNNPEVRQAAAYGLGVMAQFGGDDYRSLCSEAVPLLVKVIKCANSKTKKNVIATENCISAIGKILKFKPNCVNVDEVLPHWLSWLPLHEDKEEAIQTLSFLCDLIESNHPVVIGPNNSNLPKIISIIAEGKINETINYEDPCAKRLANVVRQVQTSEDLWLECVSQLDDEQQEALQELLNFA
UniProt O60566, whole entry: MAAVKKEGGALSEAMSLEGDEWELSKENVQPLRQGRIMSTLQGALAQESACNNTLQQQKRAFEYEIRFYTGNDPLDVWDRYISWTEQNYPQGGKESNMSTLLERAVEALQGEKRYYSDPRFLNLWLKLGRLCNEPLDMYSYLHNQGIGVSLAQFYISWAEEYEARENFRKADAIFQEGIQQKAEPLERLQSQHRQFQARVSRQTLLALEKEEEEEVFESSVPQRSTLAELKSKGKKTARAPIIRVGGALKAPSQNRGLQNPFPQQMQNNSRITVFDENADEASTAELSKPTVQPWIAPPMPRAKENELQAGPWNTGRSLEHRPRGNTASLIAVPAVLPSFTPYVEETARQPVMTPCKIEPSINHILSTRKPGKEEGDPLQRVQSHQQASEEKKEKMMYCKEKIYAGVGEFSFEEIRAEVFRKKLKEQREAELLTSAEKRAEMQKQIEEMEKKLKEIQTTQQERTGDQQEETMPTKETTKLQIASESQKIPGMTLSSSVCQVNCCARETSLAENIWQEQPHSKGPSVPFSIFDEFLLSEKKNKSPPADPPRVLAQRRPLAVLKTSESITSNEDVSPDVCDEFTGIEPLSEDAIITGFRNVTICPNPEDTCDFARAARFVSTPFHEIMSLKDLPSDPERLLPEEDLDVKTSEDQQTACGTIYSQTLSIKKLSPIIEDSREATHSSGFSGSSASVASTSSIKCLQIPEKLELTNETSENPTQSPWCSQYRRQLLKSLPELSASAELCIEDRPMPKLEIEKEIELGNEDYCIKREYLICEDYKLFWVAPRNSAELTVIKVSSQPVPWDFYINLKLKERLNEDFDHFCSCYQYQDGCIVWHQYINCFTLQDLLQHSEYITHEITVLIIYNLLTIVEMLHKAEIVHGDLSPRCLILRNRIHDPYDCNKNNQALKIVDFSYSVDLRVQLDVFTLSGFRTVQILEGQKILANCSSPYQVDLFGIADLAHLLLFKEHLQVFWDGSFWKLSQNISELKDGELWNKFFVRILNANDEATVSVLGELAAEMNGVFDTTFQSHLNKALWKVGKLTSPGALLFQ
UniProt O60942: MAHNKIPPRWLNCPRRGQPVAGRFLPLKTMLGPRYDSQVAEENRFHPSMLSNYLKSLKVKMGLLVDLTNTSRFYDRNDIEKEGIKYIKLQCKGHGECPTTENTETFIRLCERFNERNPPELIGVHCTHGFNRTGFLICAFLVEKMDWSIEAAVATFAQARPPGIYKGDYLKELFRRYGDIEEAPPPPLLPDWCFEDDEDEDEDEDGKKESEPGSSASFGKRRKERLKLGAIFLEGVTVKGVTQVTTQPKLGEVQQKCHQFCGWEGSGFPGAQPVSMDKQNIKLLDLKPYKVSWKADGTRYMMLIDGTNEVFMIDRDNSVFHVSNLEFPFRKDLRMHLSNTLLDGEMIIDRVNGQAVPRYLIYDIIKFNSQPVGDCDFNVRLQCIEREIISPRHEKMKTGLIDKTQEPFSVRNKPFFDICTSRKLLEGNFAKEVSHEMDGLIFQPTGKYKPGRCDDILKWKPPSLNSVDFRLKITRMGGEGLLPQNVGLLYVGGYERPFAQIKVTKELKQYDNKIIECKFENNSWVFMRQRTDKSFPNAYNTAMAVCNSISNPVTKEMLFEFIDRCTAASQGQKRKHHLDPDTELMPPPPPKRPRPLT
UniProt O94915: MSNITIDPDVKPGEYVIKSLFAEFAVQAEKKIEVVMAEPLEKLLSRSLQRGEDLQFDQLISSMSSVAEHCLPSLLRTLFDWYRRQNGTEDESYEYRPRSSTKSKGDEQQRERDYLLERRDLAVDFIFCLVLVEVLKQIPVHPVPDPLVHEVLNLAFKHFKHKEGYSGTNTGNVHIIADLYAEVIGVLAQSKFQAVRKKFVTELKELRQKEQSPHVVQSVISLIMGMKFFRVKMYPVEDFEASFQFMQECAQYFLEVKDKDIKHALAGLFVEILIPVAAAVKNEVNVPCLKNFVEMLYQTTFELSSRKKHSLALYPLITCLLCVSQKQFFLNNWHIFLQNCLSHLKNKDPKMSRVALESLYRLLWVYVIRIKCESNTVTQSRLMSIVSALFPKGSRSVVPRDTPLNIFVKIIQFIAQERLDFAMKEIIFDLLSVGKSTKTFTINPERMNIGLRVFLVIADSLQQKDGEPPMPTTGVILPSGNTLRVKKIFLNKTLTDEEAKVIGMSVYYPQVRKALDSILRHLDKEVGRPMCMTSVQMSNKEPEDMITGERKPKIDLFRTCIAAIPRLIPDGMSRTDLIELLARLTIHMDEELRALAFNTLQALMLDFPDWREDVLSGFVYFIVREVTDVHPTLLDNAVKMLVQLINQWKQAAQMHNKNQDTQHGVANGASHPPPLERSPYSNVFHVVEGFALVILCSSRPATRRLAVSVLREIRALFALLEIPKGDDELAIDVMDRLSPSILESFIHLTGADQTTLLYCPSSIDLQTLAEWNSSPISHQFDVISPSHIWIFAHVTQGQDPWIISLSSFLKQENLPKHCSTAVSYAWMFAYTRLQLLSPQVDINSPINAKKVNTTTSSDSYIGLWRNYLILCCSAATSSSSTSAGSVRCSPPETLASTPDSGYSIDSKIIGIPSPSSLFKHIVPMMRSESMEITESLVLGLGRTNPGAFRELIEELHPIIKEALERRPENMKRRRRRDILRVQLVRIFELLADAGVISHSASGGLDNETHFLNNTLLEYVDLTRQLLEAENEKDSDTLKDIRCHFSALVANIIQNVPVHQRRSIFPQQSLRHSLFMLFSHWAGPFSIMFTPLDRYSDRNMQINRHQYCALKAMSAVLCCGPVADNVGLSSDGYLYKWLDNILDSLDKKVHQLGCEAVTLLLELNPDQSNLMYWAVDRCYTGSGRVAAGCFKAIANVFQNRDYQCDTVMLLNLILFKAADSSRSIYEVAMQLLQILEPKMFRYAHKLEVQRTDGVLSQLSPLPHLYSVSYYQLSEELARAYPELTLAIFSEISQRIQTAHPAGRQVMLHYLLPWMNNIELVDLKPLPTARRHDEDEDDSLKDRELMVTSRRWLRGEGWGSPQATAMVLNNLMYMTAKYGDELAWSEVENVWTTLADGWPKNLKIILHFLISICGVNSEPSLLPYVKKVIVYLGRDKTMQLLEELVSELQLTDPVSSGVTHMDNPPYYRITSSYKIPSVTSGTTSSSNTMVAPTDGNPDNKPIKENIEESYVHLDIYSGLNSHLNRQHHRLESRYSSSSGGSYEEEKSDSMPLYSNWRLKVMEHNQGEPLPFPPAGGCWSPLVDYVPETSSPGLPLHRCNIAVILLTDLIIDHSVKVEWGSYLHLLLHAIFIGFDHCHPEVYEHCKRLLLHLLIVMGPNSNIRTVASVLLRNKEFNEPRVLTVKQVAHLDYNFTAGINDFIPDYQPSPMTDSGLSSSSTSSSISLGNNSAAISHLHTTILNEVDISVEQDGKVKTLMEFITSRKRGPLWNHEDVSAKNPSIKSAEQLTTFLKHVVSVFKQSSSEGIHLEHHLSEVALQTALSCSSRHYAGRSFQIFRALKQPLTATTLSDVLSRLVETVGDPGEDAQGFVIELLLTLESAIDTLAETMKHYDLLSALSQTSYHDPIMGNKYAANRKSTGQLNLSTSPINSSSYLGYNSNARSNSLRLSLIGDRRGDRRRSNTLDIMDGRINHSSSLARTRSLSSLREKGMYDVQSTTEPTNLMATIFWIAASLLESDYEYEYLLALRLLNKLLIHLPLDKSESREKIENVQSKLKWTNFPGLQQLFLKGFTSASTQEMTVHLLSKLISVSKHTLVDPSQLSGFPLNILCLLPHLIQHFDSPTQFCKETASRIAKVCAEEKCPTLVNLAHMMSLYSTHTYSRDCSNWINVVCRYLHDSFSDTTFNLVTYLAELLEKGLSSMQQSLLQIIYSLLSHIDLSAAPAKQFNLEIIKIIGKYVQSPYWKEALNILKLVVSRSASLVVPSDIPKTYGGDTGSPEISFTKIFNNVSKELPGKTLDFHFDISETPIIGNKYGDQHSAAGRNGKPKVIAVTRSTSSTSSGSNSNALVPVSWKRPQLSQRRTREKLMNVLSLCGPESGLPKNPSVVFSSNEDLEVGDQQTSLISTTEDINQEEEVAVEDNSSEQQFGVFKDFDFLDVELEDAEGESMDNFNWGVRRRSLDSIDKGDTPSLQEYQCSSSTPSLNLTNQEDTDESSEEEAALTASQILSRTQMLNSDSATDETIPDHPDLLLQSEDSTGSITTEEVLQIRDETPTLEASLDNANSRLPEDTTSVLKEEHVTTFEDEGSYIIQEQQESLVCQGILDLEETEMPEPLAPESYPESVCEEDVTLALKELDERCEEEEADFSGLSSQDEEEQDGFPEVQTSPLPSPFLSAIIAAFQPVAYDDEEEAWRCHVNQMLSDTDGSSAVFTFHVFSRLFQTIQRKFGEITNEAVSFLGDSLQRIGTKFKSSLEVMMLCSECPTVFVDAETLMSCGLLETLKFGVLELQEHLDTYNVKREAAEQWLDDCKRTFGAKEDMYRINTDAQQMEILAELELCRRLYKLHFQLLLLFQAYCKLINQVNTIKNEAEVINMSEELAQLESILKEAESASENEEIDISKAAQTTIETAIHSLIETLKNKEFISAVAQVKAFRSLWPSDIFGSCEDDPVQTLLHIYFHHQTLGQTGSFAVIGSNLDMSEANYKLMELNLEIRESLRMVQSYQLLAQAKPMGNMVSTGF
UniProt O60828: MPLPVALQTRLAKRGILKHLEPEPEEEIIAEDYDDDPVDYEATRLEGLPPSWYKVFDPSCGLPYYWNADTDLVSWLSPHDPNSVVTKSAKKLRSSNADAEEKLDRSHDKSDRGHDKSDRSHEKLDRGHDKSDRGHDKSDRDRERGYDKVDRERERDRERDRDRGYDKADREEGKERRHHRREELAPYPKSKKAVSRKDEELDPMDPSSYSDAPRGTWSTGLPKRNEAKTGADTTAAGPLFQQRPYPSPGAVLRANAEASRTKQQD
UniProt O75569: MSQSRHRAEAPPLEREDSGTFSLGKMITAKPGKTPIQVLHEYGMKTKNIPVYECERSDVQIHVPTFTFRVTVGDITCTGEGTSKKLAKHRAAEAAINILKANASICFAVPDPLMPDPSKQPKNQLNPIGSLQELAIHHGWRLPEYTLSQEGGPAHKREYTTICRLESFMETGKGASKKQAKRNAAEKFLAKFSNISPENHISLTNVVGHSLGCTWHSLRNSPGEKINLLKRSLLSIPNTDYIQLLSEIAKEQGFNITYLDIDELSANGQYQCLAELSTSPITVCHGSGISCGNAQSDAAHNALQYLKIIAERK
UniProt O95372: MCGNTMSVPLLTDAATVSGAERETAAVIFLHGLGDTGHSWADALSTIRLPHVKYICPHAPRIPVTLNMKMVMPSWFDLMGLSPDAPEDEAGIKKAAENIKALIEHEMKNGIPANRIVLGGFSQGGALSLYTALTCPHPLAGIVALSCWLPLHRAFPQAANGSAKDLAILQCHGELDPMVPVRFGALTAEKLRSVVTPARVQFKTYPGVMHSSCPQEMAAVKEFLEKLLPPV

Compound: Nc1ncnc2c1ncn2[C@@H]1O[C@H](COP(=O)(O)OP(=O)(O)NP(=O)(O)O)[C@@H](O)[C@H]1O [adenylyl imidodiphosphate]
Experiment: NP40-soluble protein abundance relative to vehicle (solubility fold change) (ratio); higher = more soluble protein in presence of AMP-PNP
Outline: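 In three independent experiments, Jurkat crude lysate made by Dounce homogenisation was treated for 10 min at room temperature and then 3 min at 37 °C with eight concentrations ranging from 0.1 to 10 mM. It was then solubilised with 0.8% NP40 plus benzonase for 60 min at 4 °C and ultracentrifuged. The supernatant was TMT-labelled for LC-MS/MS, and each value is the fold change against the detergent-processed vehicle for the same replicate, using vsn-normalised intensities.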

Row | Target | NP40-soluble protein abundance (concentration: 1mM) | NP40-soluble protein abundance (concentration: 2mM) | NP40-soluble protein abundance (concentration: 4mM) | NP40-soluble protein abundance (concentration: 6mM) | NP40-soluble protein abundance (concentration: 8mM) | NP40-soluble protein abundance (concentration: 10mM)
1 | TRMU (UniProt O75648) | 0.971 ± 0.029 | 0.942 ± 0.042 | 0.9866 ± 0.0065 | 1.02 ± 0.044 | 1.02 ± 0.052 | 1.02 ± 0.049
2 | RANBP6 (UniProt O60518) | 0.989 ± 0.06 | 0.974 ± 0.016 | 0.993 ± 0.029 | 0.978 ± 0.023 | 0.974 ± 0.044 | 0.963 ± 0.029
3 | UniProt O95671 and related entries | 1 ± 0.022 | 0.964 ± 0.029 | 1.02 ± 0.047 | 1.03 ± 0.06 | 1.04 ± 0.025 | 1.01 ± 0.042
4 | DUSP11 (UniProt O75319) | 1.02 ± 0.015 | 1.03 ± 0.018 | 1.05 ± 0.037 | 1.03 ± 0.035 | 1.06 ± 0.046 | 1.06 ± 0.078
5 | UniProt O60566 and related entries | 1.01 ± 0.015 | 0.988 ± 0.064 | 0.986 ± 0.05 | 0.944 ± 0.022 | 0.945 ± 0.029 | 0.922 ± 0.029
6 | RPP14 (UniProt O95059) | 0.961 ± 0.029 | 0.956 ± 0.011 | 0.9406 ± 0.0069 | 1.043 ± 0.0034 | 1.05 ± 0.027 | 1.04 ± 0.047
7 | RNGTT (UniProt O60942) | 0.978 ± 0.038 | 0.95 ± 0.056 | 0.988 ± 0.027 | 0.9526 ± 0.0079 | 0.9841 ± 0.0079 | 0.9551 ± 0.0037
8 | KATNA1 (UniProt O75449) | 1 ± 0.011 | 1.005 ± 0.0082 | 1.008 ± 0.009 | 0.975 ± 0.05 | 0.985 ± 0.016 | 0.959 ± 0.038
9 | PDCD6 (UniProt O75340) | 0.985 ± 0.036 | 0.928 ± 0.036 | 1.04 ± 0.045 | 1.07 ± 0.12 | 1.18 ± 0.052 | 1.1 ± 0.048
10 | UniProt O60888 and related entries | 1.028 ± 0.0045 | 1.11 ± 0.057 | 1.07 ± 0.043 | 1.02 ± 0.051 | 0.999 ± 0.054 | 1.02 ± 0.094
11 | KIF4A (UniProt O95239) | 1.026 ± 0.0028 | 1.06 ± 0.035 | 1.03 ± 0.01 | 1.02 ± 0.018 | 1.011 ± 0.0083 | 1.04 ± 0.033
12 | UniProt O94822 and related entries | 0.988 ± 0.027 | 0.945 ± 0.059 | 0.988 ± 0.025 | 0.937 ± 0.032 | 0.962 ± 0.022 | 0.9245 ± 0.006
13 | PALM (UniProt O75781) | 1.02 ± 0.028 | 1.09 ± 0.12 | 1 ± 0.018 | 0.999 ± 0.042 | 0.979 ± 0.02 | 0.982 ± 0.004
14 | UniProt O75164 | 0.979 ± 0.034 | 0.949 ± 0.039 | 0.971 ± 0.032 | 0.9648 ± 0.004 | 0.959 ± 0.029 | 0.959 ± 0.049
15 | MED14 (UniProt O60244) | 0.994 ± 0.028 | 0.989 ± 0.058 | 1.02 ± 0.065 | 1.02 ± 0.087 | 0.99 ± 0.072 | 1.04 ± 0.1
16 | UniProt O75460 | 1.04 ± 0.038 | 1.02 ± 0.043 | 1.04 ± 0.019 | 1.03 ± 0.029 | 1.02 ± 0.05 | 1.05 ± 0.058
17 | IDH1 (UniProt O75874) | 0.967 ± 0.017 | 0.925 ± 0.059 | 0.929 ± 0.032 | 0.941 ± 0.0025 | 0.935 ± 0.013 | 0.921 ± 0.026
18 | E2F6 (UniProt O75461) | 0.986 ± 0.02 | 0.913 ± 0.063 | 0.977 ± 0.012 | 0.921 ± 0.03 | 0.949 ± 0.036 | 0.919 ± 0.039
19 | FRYL (UniProt O94915) | 0.96 ± 0.041 | 0.95 ± 0.082 | 0.955 ± 0.059 | 0.96 ± 0.049 | 0.938 ± 0.053 | 0.958 ± 0.078
20 | PRMT3 (UniProt O60678) | 0.992 ± 0.027 | 0.976 ± 0.021 | 1 ± 0.031 | 0.95 ± 0.034 | 0.982 ± 0.016 | 0.9329 ± 0.0088
21 | UniProt O60828 and related entries | 1.05 ± 0.015 | 1.16 ± 0.035 | 1.09 ± 0.014 | 1.15 ± 0.02 | 1.122 ± 0.0021 | 1.22 ± 0.076
22 | UniProt O75569 and related entries | 1.01 ± 0.0093 | 0.99 ± 0.021 | 1.05 ± 0.027 | 1.06 ± 0.018 | 1.12 ± 0.024 | 1.14 ± 0.026
23 | SAP30 (UniProt O75446) | 0.96 ± 0.04 | 0.982 ± 0.086 | 0.937 ± 0.052 | 1.06 ± 0.07 | 1.03 ± 0.044 | 1.07 ± 0.028
24 | LYPLA2 (UniProt O95372) | 0.984 ± 0.044 | 0.918 ± 0.055 | 0.945 ± 0.028 | 0.972 ± 0.052 | 0.988 ± 0.075 | 0.932 ± 0.064
25 | EXTL3 (UniProt O43909) | 1.01 ± 0.033 | 1.01 ± 0.035 | 0.9978 ± 0.009 | 1.01 ± 0.022 | 1 ± 0.011 | 0.9971 ± 0.0096
26 | WBP4 (UniProt O75554) | 1.02 ± 0.032 | 1.08 ± 0.081 | 1.02 ± 0.013 | 1.05 ± 0.022 | 0.99 ± 0.023 | 1.06 ± 0.012
27 | ZBED4 (UniProt O75132) | 1.01 ± 0.023 | 1.01 ± 0.036 | 0.979 ± 0.03 | 0.965 ± 0.031 | 0.966 ± 0.024 | 0.984 ± 0.026

2 entries from above, as comma-separated lines.
Row,Target,NP40-soluble protein abundance (concentration: 1mM),NP40-soluble protein abundance (concentration: 2mM),NP40-soluble protein abundance (concentration: 4mM),NP40-soluble protein abundance (concentration: 6mM),NP40-soluble protein abundance (concentration: 8mM),NP40-soluble protein abundance (concentration: 10mM)
15,MED14 (UniProt O60244),0.994 ± 0.028,0.989 ± 0.058,1.02 ± 0.065,1.02 ± 0.087,0.99 ± 0.072,1.04 ± 0.1
16,UniProt O75460,1.04 ± 0.038,1.02 ± 0.043,1.04 ± 0.019,1.03 ± 0.029,1.02 ± 0.05,1.05 ± 0.058
